From publication PMC11011687
These are yes or no findings as the source states them, for the method shown. In cells and extracts the contact can be indirect. Some binding calls cover weakened binding; strength is not graded here.

The chains behind the UniProt entries cited, without tags or fusion partners.
UniProt Q04206: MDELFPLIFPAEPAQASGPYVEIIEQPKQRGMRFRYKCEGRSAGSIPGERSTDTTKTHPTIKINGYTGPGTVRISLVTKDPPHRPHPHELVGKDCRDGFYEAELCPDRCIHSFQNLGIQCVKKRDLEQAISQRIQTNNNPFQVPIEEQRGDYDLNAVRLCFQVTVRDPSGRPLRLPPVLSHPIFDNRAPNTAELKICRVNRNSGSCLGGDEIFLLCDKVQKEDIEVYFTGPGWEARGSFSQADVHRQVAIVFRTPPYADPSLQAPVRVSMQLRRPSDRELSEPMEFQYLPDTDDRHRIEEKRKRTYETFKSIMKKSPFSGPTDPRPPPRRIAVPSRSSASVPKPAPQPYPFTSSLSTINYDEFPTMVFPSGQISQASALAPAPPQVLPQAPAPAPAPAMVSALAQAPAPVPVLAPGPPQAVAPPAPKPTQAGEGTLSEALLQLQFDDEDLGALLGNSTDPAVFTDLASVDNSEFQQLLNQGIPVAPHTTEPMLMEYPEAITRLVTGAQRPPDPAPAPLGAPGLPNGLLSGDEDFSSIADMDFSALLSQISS

Molecular target: NF-κB p65, endogenous in 786-O (human (endogenous in 786-O)) (UniProt Q04206)
Assay: co-IP; 786-O stable cell lines expressing GFP-tagged A1CF or the GFP-tag alone; anti-p65 antibody on Protein A agarose beads; immunoblot of lysates

B1: NF-κB-repressing factor (NKRF), endogenous in 786-O (protein, UniProt O15226 1-690)
chain: MEKILQMAEGIDIGEMPSYDLVLSKPSKGQKRHLSTCDGQNPPKKQAGSKFHARPRFEPVHFVASSSKDERQEDPYGPQTKEVNEQTHFASMPRDIYQDYTQDSFSIQDGNSQYCDSSGFILTKDQPVTANMYFDSGNPAPSTTSQQANSQSTPEPSPSQTFPESVVAEKQYFIEKLTATIWKNLSNPEMTSGSDKINYTYMLTRCIQACKTNPEYIYAPLKEIPPADIPKNKKLLTDGYACEVRCQNIYLTTGYAGSKNGSRDRATELAVKLLQKRIEVRVVRRKFKHTFGEDLVVCQIGMSSYEFPPALKPPEDLVVLGKDASGQPIFNASAKHWTNFVITENANDAIGILNNSASFNKMSIEYKYEMMPNRTWRCRVFLQDHCLAEGYGTKKTSKHAAADEALKILQKTQPTYPSVKSSQCHTGSSPRGSGKKKDIKDLVVYENSSNPVCTLNDTAQFNRMTVEYVYERMTGLRWKCKVILESEVIAEAVGVKKTVKYEAAGEAVKTLKKTQPTVINNLKKGAVEDVISRNEIQGRSAEEAYKQQIKEDNIGNQLLRKMGWTGGGLGKSGEGIREPISVKEQHKREGLGLDVERVNKIAKRDIEQIIRNYARSESHTDLTFSRELTNDERKQIHQIAQKYGLKSKSHGVGHDRYLVVGRKRRKEDLLDQLKQEGQVGHYELVMPQAN
In the case of B1, the binding is reported as “binds”.
